In paper PMC11919215:
No constants are given. Whether binding was seen depends on the method and setting. Some entries that bind do so weakly or less than the wild type.

By UniProt entry, the sequences of proteins in these tests, tags left out. Residues count along the entry.
UniProt P12111, residues 26-3177: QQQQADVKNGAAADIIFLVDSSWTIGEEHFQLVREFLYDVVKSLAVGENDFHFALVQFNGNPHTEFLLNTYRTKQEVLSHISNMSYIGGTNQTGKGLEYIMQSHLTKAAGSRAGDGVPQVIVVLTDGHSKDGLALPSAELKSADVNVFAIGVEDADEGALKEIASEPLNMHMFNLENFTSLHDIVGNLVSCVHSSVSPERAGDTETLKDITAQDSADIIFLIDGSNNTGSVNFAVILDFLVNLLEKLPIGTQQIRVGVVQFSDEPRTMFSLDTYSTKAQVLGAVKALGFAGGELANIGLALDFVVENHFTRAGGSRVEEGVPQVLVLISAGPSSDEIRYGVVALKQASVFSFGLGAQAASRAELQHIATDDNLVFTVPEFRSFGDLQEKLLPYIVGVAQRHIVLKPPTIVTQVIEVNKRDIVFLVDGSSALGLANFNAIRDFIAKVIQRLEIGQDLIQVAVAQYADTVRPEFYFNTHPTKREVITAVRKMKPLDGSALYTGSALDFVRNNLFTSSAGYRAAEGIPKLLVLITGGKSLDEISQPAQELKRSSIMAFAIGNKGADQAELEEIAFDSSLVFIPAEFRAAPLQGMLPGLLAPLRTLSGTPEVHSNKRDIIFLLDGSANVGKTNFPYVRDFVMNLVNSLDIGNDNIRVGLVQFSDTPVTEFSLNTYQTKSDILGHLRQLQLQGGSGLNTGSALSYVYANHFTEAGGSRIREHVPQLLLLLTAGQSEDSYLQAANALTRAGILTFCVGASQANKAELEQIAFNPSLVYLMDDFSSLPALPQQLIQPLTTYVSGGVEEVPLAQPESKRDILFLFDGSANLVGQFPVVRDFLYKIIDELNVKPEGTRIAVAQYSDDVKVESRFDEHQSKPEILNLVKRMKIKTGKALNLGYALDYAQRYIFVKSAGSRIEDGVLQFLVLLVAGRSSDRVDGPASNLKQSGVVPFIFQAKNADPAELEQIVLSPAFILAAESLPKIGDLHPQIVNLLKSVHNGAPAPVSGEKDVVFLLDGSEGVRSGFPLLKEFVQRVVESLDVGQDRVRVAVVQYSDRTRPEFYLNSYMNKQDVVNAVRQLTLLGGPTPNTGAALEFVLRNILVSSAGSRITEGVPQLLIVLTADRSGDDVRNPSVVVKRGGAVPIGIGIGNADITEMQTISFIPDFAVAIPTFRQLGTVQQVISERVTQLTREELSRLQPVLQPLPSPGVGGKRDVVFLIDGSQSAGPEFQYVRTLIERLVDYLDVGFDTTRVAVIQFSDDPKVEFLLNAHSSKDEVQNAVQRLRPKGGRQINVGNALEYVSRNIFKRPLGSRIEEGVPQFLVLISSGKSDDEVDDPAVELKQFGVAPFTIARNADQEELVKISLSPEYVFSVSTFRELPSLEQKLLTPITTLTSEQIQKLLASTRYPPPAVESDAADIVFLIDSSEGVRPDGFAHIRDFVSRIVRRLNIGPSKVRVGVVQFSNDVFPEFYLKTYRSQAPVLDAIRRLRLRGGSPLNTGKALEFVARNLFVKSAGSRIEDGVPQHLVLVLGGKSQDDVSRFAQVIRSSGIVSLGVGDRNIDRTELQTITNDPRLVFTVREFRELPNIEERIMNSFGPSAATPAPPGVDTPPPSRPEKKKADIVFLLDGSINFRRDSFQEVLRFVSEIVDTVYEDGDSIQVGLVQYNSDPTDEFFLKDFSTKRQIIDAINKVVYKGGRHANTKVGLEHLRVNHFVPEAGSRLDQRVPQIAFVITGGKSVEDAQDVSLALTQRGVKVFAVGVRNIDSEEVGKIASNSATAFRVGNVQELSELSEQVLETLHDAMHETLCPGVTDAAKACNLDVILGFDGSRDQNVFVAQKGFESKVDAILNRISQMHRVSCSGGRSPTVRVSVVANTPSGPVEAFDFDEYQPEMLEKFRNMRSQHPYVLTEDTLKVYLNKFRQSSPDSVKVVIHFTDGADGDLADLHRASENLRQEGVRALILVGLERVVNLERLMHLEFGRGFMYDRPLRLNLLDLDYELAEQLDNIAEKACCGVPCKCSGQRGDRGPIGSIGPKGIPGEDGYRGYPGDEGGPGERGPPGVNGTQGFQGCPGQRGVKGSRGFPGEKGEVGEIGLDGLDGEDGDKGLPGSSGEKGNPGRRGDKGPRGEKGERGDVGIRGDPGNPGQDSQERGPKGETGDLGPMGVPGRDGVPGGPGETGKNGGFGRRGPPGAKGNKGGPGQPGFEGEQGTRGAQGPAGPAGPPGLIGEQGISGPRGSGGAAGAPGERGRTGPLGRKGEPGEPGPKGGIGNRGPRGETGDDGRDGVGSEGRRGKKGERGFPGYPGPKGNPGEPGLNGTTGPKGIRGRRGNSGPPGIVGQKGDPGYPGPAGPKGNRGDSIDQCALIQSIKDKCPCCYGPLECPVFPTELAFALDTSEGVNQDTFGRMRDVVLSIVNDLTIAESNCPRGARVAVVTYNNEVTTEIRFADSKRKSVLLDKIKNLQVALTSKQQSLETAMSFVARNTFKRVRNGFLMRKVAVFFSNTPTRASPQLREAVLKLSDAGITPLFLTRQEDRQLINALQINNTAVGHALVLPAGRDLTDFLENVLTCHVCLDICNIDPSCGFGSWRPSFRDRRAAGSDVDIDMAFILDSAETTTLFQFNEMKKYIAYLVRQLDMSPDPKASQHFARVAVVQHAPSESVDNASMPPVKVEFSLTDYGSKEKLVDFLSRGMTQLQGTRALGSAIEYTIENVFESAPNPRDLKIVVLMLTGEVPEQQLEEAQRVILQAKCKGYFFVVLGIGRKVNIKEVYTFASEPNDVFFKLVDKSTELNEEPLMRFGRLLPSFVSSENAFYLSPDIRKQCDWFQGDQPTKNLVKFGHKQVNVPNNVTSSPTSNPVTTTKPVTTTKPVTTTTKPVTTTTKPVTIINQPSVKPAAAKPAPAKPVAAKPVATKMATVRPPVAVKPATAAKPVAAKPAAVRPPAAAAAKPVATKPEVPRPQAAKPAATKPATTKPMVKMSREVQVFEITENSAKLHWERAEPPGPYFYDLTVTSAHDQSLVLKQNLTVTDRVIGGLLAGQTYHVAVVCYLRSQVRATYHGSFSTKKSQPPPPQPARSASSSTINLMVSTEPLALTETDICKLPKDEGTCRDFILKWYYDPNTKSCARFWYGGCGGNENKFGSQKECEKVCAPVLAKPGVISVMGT
UniProt P12109, residues 20-1028: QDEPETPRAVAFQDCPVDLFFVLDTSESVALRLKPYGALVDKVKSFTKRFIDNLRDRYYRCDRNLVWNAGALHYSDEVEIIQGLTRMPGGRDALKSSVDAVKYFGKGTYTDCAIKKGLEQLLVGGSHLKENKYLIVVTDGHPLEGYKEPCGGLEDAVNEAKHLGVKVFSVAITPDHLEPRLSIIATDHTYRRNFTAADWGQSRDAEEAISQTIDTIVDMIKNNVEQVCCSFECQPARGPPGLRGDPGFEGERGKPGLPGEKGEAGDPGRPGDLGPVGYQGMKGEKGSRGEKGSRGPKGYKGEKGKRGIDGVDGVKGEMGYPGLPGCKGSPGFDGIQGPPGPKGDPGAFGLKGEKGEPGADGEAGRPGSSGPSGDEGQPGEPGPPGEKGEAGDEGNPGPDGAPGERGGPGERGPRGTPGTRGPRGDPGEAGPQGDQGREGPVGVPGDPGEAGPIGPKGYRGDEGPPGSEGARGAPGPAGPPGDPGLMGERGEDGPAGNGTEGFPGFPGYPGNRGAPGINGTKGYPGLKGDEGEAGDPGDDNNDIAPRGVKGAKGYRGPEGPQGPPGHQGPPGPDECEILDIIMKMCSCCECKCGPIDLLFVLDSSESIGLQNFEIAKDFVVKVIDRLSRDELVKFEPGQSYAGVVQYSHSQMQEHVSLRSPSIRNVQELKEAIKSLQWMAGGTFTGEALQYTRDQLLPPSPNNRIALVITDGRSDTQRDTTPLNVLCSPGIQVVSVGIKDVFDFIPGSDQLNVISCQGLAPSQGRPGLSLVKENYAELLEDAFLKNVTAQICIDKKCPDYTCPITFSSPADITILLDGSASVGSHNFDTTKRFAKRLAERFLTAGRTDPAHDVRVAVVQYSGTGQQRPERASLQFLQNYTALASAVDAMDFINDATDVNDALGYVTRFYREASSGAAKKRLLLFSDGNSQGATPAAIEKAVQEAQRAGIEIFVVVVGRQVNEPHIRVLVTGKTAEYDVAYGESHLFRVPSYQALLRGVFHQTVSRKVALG

Target: collagen VI α3 chain, endogenous in WI-26 VA4 COL6A1 knockout cells (human (endogenous in WI-26 VA4)) (UniProt P12111)
Experiment: composite agarose/polyacrylamide gel electrophoresis with immunoblot; supernatants of WI-26 VA4 COL6A1 KO cells transfected with the wild-type or the mutant α1 chain; tetramers detected with the α3N antibody

recombinant wild-type full-length collagen VI α1 chain with His8 tag, expressed in WI-26 VA4 COL6A1 knockout cells (from UniProt P12109 20-1028)
binding: binds
